Measurements reported in PubChem BioAssay AID1259425 (University of Nebraska Medical Center, 2018).
The deposit covers about 14,000 reagents; shown is a part drawn at random. Some reagents were tested in more than one well and are listed for each. No sequences are given here. The record does not give: the time to read-out.

- Screen: 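Find knockdowns that reproduce the gene expression pattern seen when KSR1 is lost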 (primary screen)
- System: HCT116 human colon cancer cells
- Knock-down reagent: siRNA pool against human genes, 50 nM siRNA
- Measured: 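mRNA of six signature genes measured together by branched-DNA assay after 50 nM siRNA pool, blank removed, divided by geometric mean of two housekeeping genes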
- Reading the numbers: BNIP3L mRNA: higher = more BNIP3L transcript after knockdown; NDRG1 mRNA: higher = more NDRG1 transcript after knockdown; BNIP3 mRNA: higher = more BNIP3 transcript after knockdown; ALDOC mRNA: higher = more ALDOC transcript after knockdown; ACSL5 mRNA: higher = more ACSL5 transcript after knockdown

gene symbol	PubChem SID	BNIP3L mRNA, set 1	NDRG1 mRNA, set 1	BNIP3 mRNA, set 1	ALDOC mRNA, set 1	ACSL5 mRNA, set 1
P2RY2 (purinergic receptor P2Y2)	SID363993733	0.0702	0.0361	0.372	0.0354	0.154
P2RY2 (purinergic receptor P2Y2)	SID363993733	0.0551	0.0378	0.353	0.0414	0.134
EDEM3 (ER degradation enhancing alpha-mannosidase like protein 3)	SID364003300	0.0513	0.0594	0.22	0.0161	0.0684
STAB2 (stabilin 2)	SID364000361	0.0952	0.441	0.344	0.0246	0.229
MED14 (mediator complex subunit 14)	SID363995228	0.126	0.271	0.206	0.0679	0.0646
AKR7A2 (aldo-keto reductase family 7 member A2)	SID363994764	0.132	0.13	0.4	0.00152	0.25
TSLIG2 (tRNA splicing ligase complex subunit 2)	SID364002743	0.0576	0.201	0.248	0.0317	0.152
VNN3P (vanin 3, pseudogene)	SID364001040	0.0884	0.325	0.437	0.0237	0.267
TIMM44 (translocase of inner mitochondrial membrane 44)	SID363997167	0.135	0.316	0.257	0.0337	0.419
PTGDR2 (prostaglandin D2 receptor 2)	SID363995734	0.194	0.195	0.33	0.072	0.145
CNTN6 (contactin 6)	SID363998873	0.13	0.106	0.323	0.061	0.144
ODF2L (outer dense fiber of sperm tails 2 like)	SID364005049	0.106	0.102	0.256	0.0291	0.161
COX7B (cytochrome c oxidase subunit 7B)	SID363993079	0.0971	0.247	0.216	0.0298	0.0871
MMP27 (matrix metallopeptidase 27)	SID364002349	0.101	0.165	0.222	0.0194	0.131
BRF2 (BRF2 general transcription factor IIIB subunit)	SID364000966	0.0819	0.133	0.271	0.00706	0.227
CCNB1IP1 (cyclin B1 interacting protein 1)	SID364002065	0.0828	0.257	0.487	0.0665	0.0662
ETV1 (ETS variant transcription factor 1)	SID363995898	0.0821	0.131	0.231	0.0165	0.121
UGT1A7 (UDP glucuronosyltransferase family 1 member A7)	SID364001383	0.0825	0.183	0.147	0.0321	0.222
USP10 (ubiquitin specific peptidase 10)	SID363996081	0.0445	0.138	0.249	0.0155	0.143
PRPF40A (pre-mRNA processing factor 40A)	SID364005456	0.383	2.57	0.663	0.0856	0.288
ARPC5 (actin related protein 2/3 complex subunit 5)	SID363996603	0.272	0.442	0.316	0.0161	0.199
CASP9 (caspase 9)	SID363992514	0.0624	0.266	0.276	0.0263	0.129
ZNF12 (zinc finger protein 12)	SID363999993	0.102	0.116	0.408	0.00961	0.308
LYVE1 (lymphatic vessel endothelial hyaluronan receptor 1)	SID363997473	0.203	0.197	0.291	0.0592	0.169

4 of these entries, set out differently:
{"gene symbol":"STAB2 (stabilin 2)","PubChem SID":"SID364000361","BNIP3L mRNA, set 1":0.0952,"NDRG1 mRNA, set 1":0.441,"BNIP3 mRNA, set 1":0.344,"ALDOC mRNA, set 1":0.0246,"ACSL5 mRNA, set 1":0.229}
{"gene symbol":"MED14 (mediator complex subunit 14)","PubChem SID":"SID363995228","BNIP3L mRNA, set 1":0.126,"NDRG1 mRNA, set 1":0.271,"BNIP3 mRNA, set 1":0.206,"ALDOC mRNA, set 1":0.0679,"ACSL5 mRNA, set 1":0.0646}
{"gene symbol":"AKR7A2 (aldo-keto reductase family 7 member A2)","PubChem SID":"SID363994764","BNIP3L mRNA, set 1":0.132,"NDRG1 mRNA, set 1":0.13,"BNIP3 mRNA, set 1":0.4,"ALDOC mRNA, set 1":0.00152,"ACSL5 mRNA, set 1":0.25}
{"gene symbol":"TSLIG2 (tRNA splicing ligase complex subunit 2)","PubChem SID":"SID364002743","BNIP3L mRNA, set 1":0.0576,"NDRG1 mRNA, set 1":0.201,"BNIP3 mRNA, set 1":0.248,"ALDOC mRNA, set 1":0.0317,"ACSL5 mRNA, set 1":0.152}

More reagents follow:
gene symbol	PubChem SID	BNIP3L mRNA, set 1	NDRG1 mRNA, set 1	BNIP3 mRNA, set 1	ALDOC mRNA, set 1	ACSL5 mRNA, set 1
SPRING1 (SREBF pathway regulator in golgi 1)	SID364003017	0.211	0.205	0.476	0.0415	0.205
LMO3 (LIM domain only 3)	SID363992286	0.163	0.276	0.416	0.0379	0.171
STYX (serine/threonine/tyrosine interacting protein)	SID364004657	0.0772	0.0946	0.248	0.0195	0.231
FUT9 (fucosyltransferase 9)	SID363997372	0.0753	0.19	0.314	0.0375	0.174
DCLRE1A (DNA cross-link repair 1A)	SID363999168	0.0631	0.127	0.324	0.011	0.204
PAAF1 (proteasomal ATPase associated factor 1)	SID364003283	0.125	0.319	0.273	0.0532	0.124
TM4SF1 (transmembrane 4 L six family member 1)	SID363998659	0.148	0.154	0.233	0.0169	0.0607
ZGRF1 (zinc finger GRF-type containing 1)	SID364001034	0.149	0.416	0.491	0.00838	0.304
LPL (lipoprotein lipase)	SID363991571	0.125	0.102	0.423	0.0365	0.512
MAP3K13 (mitogen-activated protein kinase kinase kinase 13)	SID363995680	0.109	0.427	0.28	0.00907	0.159
SIRT5 (sirtuin 5)	SID363998165	0.0668	0.414	0.37	0.0542	0.086
NPPB (natriuretic peptide B)	SID363993693	0.117	0.134	0.306	0.0161	0.101
ALDH8A1 (aldehyde dehydrogenase 8 family member A1)	SID364002489	0.0811	0.299	0.414	0.00984	0.211
RBM8A (RNA binding motif protein 8A)	SID363996041	0.249	0.334	0.404	0.295	0.123
SAA2 (serum amyloid A2)	SID364003408	0.212	0.0836	0.479	0.0806	0.302
TRIM38 (tripartite motif containing 38)	SID363997171	0.0884	0.0716	0.252	0.0284	0.155
KLRF1 (killer cell lectin like receptor F1)	SID364000168	0.081	0.0876	0.288	0.0197	0.197
DYNLT2 (dynein light chain Tctex-type 2)	SID364004856	0.189	0.972	0.253	0.0232	0.194
HOXA6 (homeobox A6)	SID364002678	0.105	0.206	0.387	0.0418	0.157
RBM12 (RNA binding motif protein 12)	SID363996896	0.117	0.161	0.326	0.0117	0.305
KYAT3 (kynurenine aminotransferase 3)	SID364001438	0.112	0.174	0.273	0.0244	0.352
SPRYD3 (SPRY domain containing 3)	SID364004217	0.063	0.267	0.212	0.0272	0.253
ZNF649 (zinc finger protein 649)	SID364002633	0.0764	0.279	0.263	0.0269	0.19
H2AC7 (H2A clustered histone 7)	SID364001984	0.186	0.503	0.291	0.0286	0.208
LAT2 (linker for activation of T cells family member 2)	SID363998610	0.238	0.695	0.435	0.0599	0.3
NBEAL1 (neurobeachin like 1)	SID364004987	0.0835	0.198	0.258	0.00959	0.289
